PubChem BioAssay AID652272 – Drosophila RNAi Screening Center, 2013

- Purpose: 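Finding fly genes that regulate Hedgehog signal transduction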 (primary screen)
- Cell system: Drosophila clone 8 (Cl8) cells
- Knock-down reagent: long dsRNA against Drosophila genes
- Measurement: 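Firefly light from a Hedgehog-responsive ptc promoter reporter and Renilla reference light, both read on a plate reader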
- Direction: firefly Hh reporter signal: higher = more ptc reporter light; Renilla reference signal: higher = more Renilla control light
- Rule for the call: 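Hit when the z-score averaged over two replicates is under -2 or over +3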
- Meaning of the calls: active = hit: reporter lowered or raised; inactive = not a hit
The screen tested about 21,000 reagents; below is an unselected part of those that have a named target and a result. In the full data, 503 (2.4%) got an active call. 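Raw plate light values, not normalised; calls rest on replicate z-scores that were not deposited; hits include reporter decreases as well as increases.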 Entries without a mark were called inactive. Names joined by + are all predicted targets of the reagent. Not stated in the record: the amount of reagent, the time to read-out.

| gene | DRSC id | firefly Hh reporter signal, replicate 1 | firefly Hh reporter signal, replicate 2 | firefly Hh reporter signal, replicate 3 | Renilla reference signal, replicate 1 | Renilla reference signal, replicate 2 |
| --- | --- | --- | --- | --- | --- | --- |
| Cpr47Eg (Cuticular protein 47Eg) | DRSC07330 | 74432 | 45498 | – | 2151 | 3493 |
| CG17242 | DRSC00493 | 83307 | 86413 | – | 1796 | 2108 |
| apt (apontic) | DRSC04671 | 1.18e5 | 57984 | – | 3347 | 1277 |
| CG9281 | DRSC20179 | 1.09e5 | 70829 | – | 2800 | 2313 |
| Cul2 (Cullin 2) | DRSC03710 | 1.05e5 | 88859 | – | 4044 | 3665 |
| Kaz (Katazuke) | DRSC14637 | 6.10e5 | 1.33e5 | – | 27787 | 3206 |
| CheB38c (Chemosensory protein B 38c) | DRSC02389 | 79578 | 60928 | – | 2262 | 5520 |
| asRNA:CR43299 + CG8119 | DRSC20083 | 72285 | 1.63e5 | – | 2827 | 6632 |
| flip (flippy) | DRSC12326 | 1.33e5 | 1.36e5 | – | 4652 | 16970 |
| CG8399 | DRSC07163 | 1.05e5 | 62112 | – | 4725 | 2822 |
| MED8 (Mediator complex subunit 8) | DRSC06426 | 95338 | 59328 | – | 2229 | 3524 |
| Shawl (Shaw-like) | DRSC02209 | 1.31e5 | 52673 | – | 3545 | 5595 |
| Shawl (Shaw-like) | DRSC02748 | 1.45e5 | 62180 | – | 3959 | 6841 |
| CG42674 | DRSC10066 | 6.26e5 | 1.39e5 | – | 6116 | 6116 |
| CG42674 | DRSC10067 | 1.35e5 | 1.97e5 | – | 4592 | 5762 |
| CG42674 | DRSC10811 | 1.28e5 | 1.69e5 | – | 2076 | 5059 |
| intr (intrepid) | DRSC14528 | 1.05e5 | 95168 | – | 1844 | 2296 |
| grsm (granny smith) | DRSC14165 | 1.36e5 | 1.33e5 | – | 4928 | 3172 |
| grsm (granny smith) | DRSC14843 | 1.15e5 | 1.19e5 | – | 2562 | 2965 |
| CG13046 | DRSC09927 | 1.17e5 | – | – | 5356 | 3121 |
| CR10102 (pseudo) | DRSC05963 | 70938 | 54752 | – | 1937 | 4280 |
| Vha16-3 (Vacuolar H[+] ATPase 16kD subunit 3) | DRSC10872 | 34289 | 51954 | 51251 | 3884 | 3251 |
| CG17917 | DRSC12570 | 56164 | 1.12e5 | – | 2298 | 3433 |
| CG6763 | DRSC16110 | 5.43e5 | 75868 | – | 24757 | 2475 |
| CG16903 | DRSC18561 | 92163 | 1.57e5 | – | 4400 | 6785 |
| az2 | DRSC07580 | 1.04e5 | 54746 | – | 4151 | 1133 |
| ND6 (retired record) | DRSC21271 | 1.85e5 | 8.76e5 | 3.52e5 | 6038 | 5376 |
| SPoCk (Secretory Pathway Calcium atpase) | DRSC11675 | 74338 | 1.36e5 | – | 2645 | 3819 |
| SPoCk (Secretory Pathway Calcium atpase) | DRSC11706 | 64425 | 91275 | – | 2613 | 2375 |
| SPoCk (Secretory Pathway Calcium atpase) | DRSC11844 | 84477 | 1.10e5 | – | 3141 | 2996 |
| SPoCk (Secretory Pathway Calcium atpase) | DRSC11845 | 74248 | 84965 | – | 2800 | 2343 |
| CG13000 | DRSC19519 | 50448 | 1.98e5 | – | 1820 | 9697 |
| CG14014 | DRSC02345 | 1.21e5 | 65104 | – | 2327 | 7704 |
| alka (alkaliphile) | DRSC06136 | 58518 | 38505 | – | 1537 | 3243 |
| CG43349 | DRSC00039 | 8.50e5 | 3.55e5 | – | 40013 | 12406 |
| vsg (visgun) | DRSC10219 | 29824 | 65810 | 50588 | 7296 | 4033 |
| eRF1 (eukaryotic translation release factor 1) | DRSC11779 | 52608 (active) | 39704 | – | 3255 | 2340 |
| 5-HT1A (5-hydroxytryptamine (serotonin) receptor 1A) | DRSC05030 | 54643 | 54679 | – | 804 | 3722 |
| CG31287 | DRSC13138 | 57925 | 1.77e5 | – | 12774 | 3703 |
| Rab3-GAP (Rab3 GTPase activating protein) | DRSC02001 | 1.52e5 | 89008 | – | 6247 | 4104 |
| CG7264 | DRSC10793 | 50688 | 44994 | 52676 | 4538 | 3930 |
| Ssadh (Succinic semialdehyde dehydrogenase) | DRSC15621 | 1.01e5 | 85782 | – | 2408 | 2562 |
| bnb (bangles and beads) | DRSC20314 | 1.25e5 | 1.14e5 | – | 3079 | 2967 |
| Vha16-4 (Vacuolar H[+] ATPase 16kD subunit 4) | DRSC07321 | 81120 | 55160 | – | 2357 | 3942 |
| bsk (basket) | DRSC03499 | 1.05e5 | 67712 | – | 4730 | 3028 |
| Scgalpha (Sarcoglycan alpha) | DRSC03076 | 1.09e5 | 54172 | – | 2888 | 5171 |
| qua (quail) | DRSC03598 | 1.11e5 | 52833 | – | 3220 | 5280 |
| Trpgamma (Transient receptor potential cation channel gamma) | DRSC03626 | 1.00e5 | 78039 | – | 2585 | 7801 |
| CG7945 | DRSC10934 | 81433 | 46426 | – | 3088 | 1831 |
| jus (julius seizure) | DRSC14861 | 54546 | 29607 | – | 1761 | 836 |
| jus (julius seizure) | DRSC14862 | 77201 | 83524 | – | 2475 | 2242 |
| CG13685 | DRSC10043 | 60176 | 84546 | – | 7011 | 5813 |
| pug (pugilist) | DRSC17036 | 57785 | 97104 | – | 2329 | 2726 |
| ara (araucan) | DRSC11322 | 57744 | 11540 | 36064 | 2000 | 2807 |
| CG15554 | DRSC15092 | 1.20e5 | 1.33e5 | – | 4544 | 3912 |
| CG33648 | DRSC01387 | 1.35e5 | 3.86e5 | – | 3045 | 17468 |
| CatB (Catalase B) | DRSC03194 | 92742 | 1.04e5 | – | 3789 | 3819 |
| Acp26Aa (Accessory gland protein 26Aa) | DRSC01855 | 83638 | 48061 | – | 2295 | 5399 |
| mbo (members only) | DRSC16123 | 1.19e5 | 82871 | – | 5249 | 3741 |
| org-1 (optomotor-blind-related-gene-1) | DRSC18810 | 99741 | 1.53e5 | – | 3484 | 7147 |
| CG43295 | DRSC09416 | 1.90e5 | – | – | 4393 | – |
| CG12343 | DRSC06135 | 64554 | 31616 | – | 1832 | 2976 |
| Ubc7 (Ubiquitin conjugating enzyme 7) | DRSC20299 | 76059 | 1.62e5 | – | 2441 | 6041 |
| CG3732 | DRSC04410 | 57426 (active) | 48128 | – | 3956 | 3050 |
| CG8569 | DRSC07214 | 62567 | 47665 | – | 3139 | 1991 |
| TpnC73F (Troponin C at 73F) | DRSC11307 | 1.06e5 | – | – | 2892 | 2580 |
| CG5597 | DRSC04517 | 1.34e5 | 94580 | – | 4296 | 3957 |
| CG32650 | DRSC19899 | 93778 | 61739 | – | 2770 | 1792 |
| CG14657 | DRSC12219 | 52972 | 95904 | – | 1686 | 3280 |
| CG14657 | DRSC12243 | 99875 | 95623 | – | 3676 | 3729 |
| euc (eucalyptus) | DRSC14492 | 6.28e5 | 1.06e5 | – | 33623 | 3465 |
| Alk (Anaplastic lymphoma kinase) | DRSC05918 | 1.42e5 | 67156 | – | 3651 | 4962 |
| CG13113 | DRSC02211 | 1.05e5 | 65085 | – | 2768 | 5289 |
